Results deposited as PubChem BioAssay AID1259308 (NCATS, 2017)
Purpose: 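Knock-downs that increase output of a recombinant reporter protein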 (primary screen). Cell system: human HEK293 embryonic kidney cells stably expressing firefly luciferase (HEK-CMV-Luc2-Hygro). Knock-down reagent: single siRNA against human genes, 0.8 pmol siRNA per well. Duration: 72 h. Detection: 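Luciferase light (ONE-Glo) measured on one replicate plate set and viability (CellTiter-Glo) on the other, scaled to a negative control siRNA, with robust z-scores and luciferase per cell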. Reading the numbers: total luciferase, z-score and total luciferase, % of control: higher = more reporter protein produced. Call rule: 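An siRNA counts as active if its total luciferase robust z-score exceeds 3; genes with two or more such siRNAs out of three were retested with fresh siRNAs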. Calls: active = raised luciferase; inactive = no rise.
Here is one part, drawn at random, of about 59,000 deposited reagents. Of all reagents, about 1,510 (2.6%) got an active call. 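Calls use total luciferase alone and ignore viability, so some active siRNAs may act by altering cell number.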 Reagents against one gene are numbered here. Not all columns of the deposit are shown.

RLN2 #1 → total luciferase, z-score = 0.105; total luciferase, % of control = 84; activity call = inactive
RLN2 #2 → total luciferase, z-score = -1.32; total luciferase, % of control = 55.6; activity call = inactive
RLN2 #3 → total luciferase, z-score = -1.52; total luciferase, % of control = 51.8; activity call = inactive
SYT5 #1 → total luciferase, z-score = -0.557; total luciferase, % of control = 70.8; activity call = inactive
SYT5 #2 → total luciferase, z-score = 1.52; total luciferase, % of control = 112; activity call = inactive
SYT5 #3 → total luciferase, z-score = -0.844; total luciferase, % of control = 65.1; activity call = inactive
MBOAT7 #1 → total luciferase, z-score = -0.000806; total luciferase, % of control = 81.9; activity call = inactive
MBOAT7 #2 → total luciferase, z-score = 0.722; total luciferase, % of control = 96.3; activity call = inactive
MBOAT7 #3 → total luciferase, z-score = -0.248; total luciferase, % of control = 77; activity call = inactive
PTER #1 → total luciferase, z-score = -0.984; total luciferase, % of control = 62.3; activity call = inactive
PTER #2 → total luciferase, z-score = 0.0572; total luciferase, % of control = 83; activity call = inactive
PTER #3 → total luciferase, z-score = 0.0836; total luciferase, % of control = 83.5; activity call = inactive

Records above whose gene name begins with S or s (3):
SYT5 #1 → total luciferase, z-score = -0.557; total luciferase, % of control = 70.8; activity call = inactive
SYT5 #2 → total luciferase, z-score = 1.52; total luciferase, % of control = 112; activity call = inactive
SYT5 #3 → total luciferase, z-score = -0.844; total luciferase, % of control = 65.1; activity call = inactive
